Test results published in article PMC4673185.
No constants are given. Whether binding was seen depends on the method and setting. Binding seen in cells or lysates may run through a third protein. Some entries that bind do so weakly or less than the wild type.

The chains behind the UniProt entries cited, without tags or fusion partners.
UniProt O00429: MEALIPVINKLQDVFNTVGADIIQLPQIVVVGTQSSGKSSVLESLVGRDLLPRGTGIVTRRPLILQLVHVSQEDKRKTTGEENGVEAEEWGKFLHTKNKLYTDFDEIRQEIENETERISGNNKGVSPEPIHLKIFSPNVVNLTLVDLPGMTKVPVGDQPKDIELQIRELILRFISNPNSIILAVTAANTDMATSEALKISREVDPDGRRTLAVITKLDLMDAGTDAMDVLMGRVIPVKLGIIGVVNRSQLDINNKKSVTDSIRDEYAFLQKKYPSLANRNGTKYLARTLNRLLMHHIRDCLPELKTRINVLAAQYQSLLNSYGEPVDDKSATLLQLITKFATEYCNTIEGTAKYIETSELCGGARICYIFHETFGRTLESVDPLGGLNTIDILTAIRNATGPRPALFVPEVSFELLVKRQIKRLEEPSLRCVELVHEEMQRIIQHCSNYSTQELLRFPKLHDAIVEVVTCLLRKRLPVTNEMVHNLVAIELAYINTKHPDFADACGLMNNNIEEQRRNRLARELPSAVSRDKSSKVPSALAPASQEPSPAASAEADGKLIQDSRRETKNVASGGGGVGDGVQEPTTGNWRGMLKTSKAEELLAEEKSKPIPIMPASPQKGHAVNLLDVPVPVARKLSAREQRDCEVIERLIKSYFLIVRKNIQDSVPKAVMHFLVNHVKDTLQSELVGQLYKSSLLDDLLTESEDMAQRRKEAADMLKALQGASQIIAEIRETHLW
UniProt Q07812: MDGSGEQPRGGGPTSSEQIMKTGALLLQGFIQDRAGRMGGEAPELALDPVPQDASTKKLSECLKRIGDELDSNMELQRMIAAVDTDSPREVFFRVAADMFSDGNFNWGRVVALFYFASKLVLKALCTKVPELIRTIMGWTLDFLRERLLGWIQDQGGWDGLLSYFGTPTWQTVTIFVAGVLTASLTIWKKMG

Key:
[1] = target: Dynamin-related protein Drp1 (human (endogenous in Su-DHL4)) (UniProt O00429); assay: co-IP; untreated (resting) Su-DHL4 cells; proteins extracted with CelLytic M cell Lysis Reagent; 500 ug proteins; Dynabeads protein A coated with 5 ug rabbit anti-Bax (N-20) or rabbit anti-Drp1 (H-300); 1 hour at room temperature; Western blotting with mouse anti-Bax (2D2) or mouse anti-Drp1 (6Z-82)
[2] = target: Bax (human (endogenous in Su-DHL4)) (UniProt Q07812); assay: co-IP; Su-DHL4 cells treated with UV light for 5 min, incubated for 2 and 3 hours; proteins extracted with 1% CHAPS-containing buffer (10 mM Hepes, pH 7.4, 150 mM NaCl, 1 mM DTT); IP with anti-Bax 6A7 (active Bax); Western blotting with rabbit anti-Drp1 (H-300) and rabbit anti-Bax (N-20)
[3] = target: Bax (human (endogenous in Su-DHL4)) (UniProt Q07812); assay: co-IP; untreated (resting) Su-DHL4 cells; proteins extracted with CelLytic M cell Lysis Reagent; 500 ug proteins; Dynabeads protein A coated with 5 ug rabbit anti-Bax (N-20) or rabbit anti-Drp1 (H-300); 1 hour at room temperature; Western blotting with mouse anti-Bax (2D2) or mouse anti-Drp1 (6Z-82)

## Bax (from UniProt Q07812 1-192)
[1]
  binding: binds

## Dynamin-related protein Drp1 (from UniProt O00429 1-736)
[2]
  binding: binds
[3]
  binding: binds
